{"source": "PubChem BioAssay AID248", "about": "(DTP/NCI, 2004)", "tested_on": "L1210 leukemia ip in BDF1 mice, survival T/C", "test": "NCI In Vivo Anticancer Drug Screen. Data for tumor model L1210 Leukemia (intraperitoneal) in B6D2F1 (BDF1) mice", "settings": "T/C endpoint: mean survival time, higher T/C = longer survival", "key": {"[1]": {"settings": "dose: 25.0 mg/kg/injection, schedule: Q01DX009 (ip), vehicle: saline"}, "[2]": {"settings": "dose: 100.0 mg/kg/injection, schedule: Q01DX001 (ip), vehicle: saline"}, "[3]": {"settings": "dose: 100.0 mg/kg/injection, schedule: Q04DX002 (ip), vehicle: saline"}, "[4]": {"settings": "dose: 400.0 mg/kg/injection, schedule: Q01DX009 (ip), vehicle: saline with Tween-80"}, "[5]": {"settings": "dose: 400.0 mg/kg/injection, schedule: Q04DX003 (ip), vehicle: saline"}, "[6]": {"settings": "dose: 400.0 mg/kg/injection, schedule: Q04DX003 (ip), vehicle: saline with Tween-80"}, "[7]": {"settings": "dose: 300.0 mg/kg/injection, schedule: Q01DX001 (ip), vehicle: saline"}, "[8]": {"settings": "dose: 200.0 mg/kg/injection, schedule: Q04DX003 (ip), vehicle: saline with Tween-80"}}, "note": "The list is a part of this screen's results and no random one: it gathers tests that were run many times, whatever their T/C, doses with no T/C, and many T/C values between a quarter and a half above the control. Further doses and runs are listed elsewhere. T/C is the treated group as % of the vehicle group. Some entries give survivors of the animals treated and no T/C: the source holds a T/C of zero for them, seemingly a mark for toxic or unscored doses. Some survivor counts are full or nearly so, which does not show that the dose was tolerated: the source hardly ever lists a survival T/C far under the control, and the zero likely stands for such cases as well. Counts of survivors are from the toxicity check (mostly the fifth day) where no day follows; animals may have died later. Schedule codes are those of the source, read here as Q, the interval in days (D) or hours (H), X, the number of doses. Some doses were run more than once; the values are given in rising order. Some schedules carry Z or #; the key to these is not given. For survival time, this PubChem deposit counts one and a half times the control or more as active, and values a quarter to a half above the control carry no call in these data; other NCI protocols may use other cut-offs. Some T/C values carry the count of animals alive at the toxicity check (mostly the fifth day); without a count, all were alive then.", "data": [{"smiles": "NC(CCl)=NCc1ccccc1", "values": [{"measurement": "T/C", "setting": "[1]", "result": "88, 98, 104 % of control"}, {"measurement": "survivor count", "setting": "[1]", "result": "3 of 3"}, {"measurement": "survivor count", "setting": "dose: 50.0 mg/kg/injection, schedule: Q01DX009 (ip), vehicle: saline", "result": "5 of 6 and 3 of 3"}, {"measurement": "survivor count", "setting": "[2]", "result": "2 of 6"}, {"measurement": "survivor count", "setting": "dose: 100.0 mg/kg/injection, schedule: Q01DX009 (ip), vehicle: saline", "result": "0 of 3 and 0 of 6"}, {"measurement": "T/C", "setting": "[3]", "result": "88 % of control"}, {"measurement": "survivor count", "setting": "[3]", "result": "1 of 6, 1 of 3, 5 of 6"}, {"measurement": "survivor count", "setting": "dose: 200.0 mg/kg/injection, schedule: Q04DX002 (ip), vehicle: saline", "result": "0 of 3 and 0 of 6"}, {"measurement": "survivor count", "setting": "dose: 400.0 mg/kg/injection, schedule: Q04DX002 (ip), vehicle: saline", "result": "0 of 3 and 0 of 6"}]}, {"smiles": "CCCCCCCCCCCCN1CCC(=O)NC1=O", "values": [{"measurement": "survivor count", "setting": "[4]", "result": "6 of 6"}]}, {"smiles": "O=c1[nH]c2c(cc1Br)C(Br)C(Br)C=C2", "note": "(stereo unspecified)", "values": [{"measurement": "survivor count", "setting": "dose: 400.0 mg/kg/injection, schedule: Q01DX001 (ip), vehicle: other", "result": "0 of 4"}]}, {"smiles": "CN(C)CCC#N", "values": [{"measurement": "survivor count", "setting": "[5]", "result": "4 of 6"}]}, {"smiles": "Cc1ccc(SNc2ccccc2)cc1", "values": [{"measurement": "survivor count", "setting": "[6]", "result": "6 of 6"}]}, {"smiles": "CC1CC[N-]CC1.CC1CC[N-]CC1.CC1CC[N-]CC1.CC1CC[N-]CC1.[Pt+4]", "values": [{"measurement": "survivor count", "setting": "dose: 1.56 mg/kg/injection, schedule: Q04DX003 (ip), vehicle: saline", "result": "0 of 6"}, {"measurement": "T/C", "setting": "dose: 3.12 mg/kg/injection, schedule: Q01DX009 (ip), vehicle: saline", "result": "126 % of control [5 of 6 alive]"}, {"measurement": "survivor count", "setting": "dose: 6.25 mg/kg/injection, schedule: Q04DX003 (ip), vehicle: saline", "result": "0 of 6"}, {"measurement": "survivor count", "setting": "dose: 100.0 mg/kg/injection, schedule: Q04DX003 (ip), vehicle: saline", "result": "1 of 6"}, {"measurement": "survivor count", "setting": "dose: 200.0 mg/kg/injection, schedule: Q04DX003 (ip), vehicle: saline", "result": "0 of 6"}, {"measurement": "survivor count", "setting": "[5]", "result": "0 of 6"}]}, {"smiles": "CCN(CCCCOC(=O)c1ccc(OC)c(OC)c1)C(C)Cc1ccc(OC)cc1", "note": "(stereo unspecified)", "values": [{"measurement": "survivor count", "setting": "dose: 150.0 mg/kg/injection, schedule: Q01DX009 (ip), vehicle: saline", "result": "1 of 6"}, {"measurement": "survivor count", "setting": "dose: 300.0 mg/kg/injection, schedule: Q04DX003 (ip), vehicle: saline", "result": "0 of 4"}]}, {"smiles": "Nc1nc(C=O)c(Cc2ccc(Br)cc2)c(=O)[nH]1", "values": [{"measurement": "survivor count", "setting": "dose: 200.0 mg/kg/injection, schedule: Q01DX009 (ip), vehicle: saline with Tween-80", "result": "2 of 6"}, {"measurement": "survivor count", "setting": "[4]", "result": "0 of 6"}]}, {"smiles": "COC(=O)c1ccc2c(ccc[n+]2C)c1", "values": [{"measurement": "survivor count", "setting": "[7]", "result": "0 of 6"}]}, {"smiles": "O=C(COC(=O)c1ccccc1C(=O)c1ccccc1O)c1ccc(-c2ccccc2)cc1", "values": [{"measurement": "survivor count", "setting": "[2]", "result": "4 of 4"}]}, {"smiles": "C(=C\\c1cccnc1)/c1ccncc1", "values": [{"measurement": "survivor count", "setting": "[8]", "result": "1 of 6"}]}, {"smiles": "CNc1nc(Nc2ccc(C3=NCCN3)cc2)nc(Nc2ccc(C3=NCCN3)cc2)n1", "values": [{"measurement": "T/C", "setting": "dose: 30.0 mg/kg/injection, schedule: Q01DX Z (ip), vehicle: saline", "result": "132 % of control"}, {"measurement": "T/C", "setting": "dose: 45.0 mg/kg/injection, schedule: Q01DX Z (ip), vehicle: saline", "result": "148 % of control [5 of 6 alive]"}, {"measurement": "survivor count", "setting": "dose: 60.0 mg/kg/injection, schedule: Q01DX015 (ip), vehicle: water", "result": "1 of 6"}, {"measurement": "survivor count", "setting": "dose: 100.0 mg/kg/injection, schedule: Q01DX001 (ip), vehicle: water", "result": "3 of 6"}, {"measurement": "survivor count", "setting": "dose: 150.0 mg/kg/injection, schedule: Q01DX001 (ip), vehicle: water", "result": "0 of 6"}, {"measurement": "survivor count", "setting": "dose: 300.0 mg/kg/injection, schedule: Q01DX001 (ip), vehicle: water", "result": "0 of 6"}, {"measurement": "survivor count", "setting": "dose: 600.0 mg/kg/injection, schedule: Q01DX001 (ip), vehicle: water", "result": "0 of 6"}]}, {"smiles": "CCCCCCCCCCCC(=O)NC(=S)Nc1nccs1", "values": [{"measurement": "survivor count", "setting": "dose: 100.0 mg/kg/injection, schedule: Q04DX003 (ip), vehicle: Klucel (hydroxypropylcellulose) (HPC)", "result": "6 of 6"}, {"measurement": "survivor count", "setting": "dose: 200.0 mg/kg/injection, schedule: Q04DX003 (ip), vehicle: Klucel (hydroxypropylcellulose) (HPC)", "result": "6 of 6"}, {"measurement": "survivor count", "setting": "dose: 400.0 mg/kg/injection, schedule: Q04DX003 (ip), vehicle: Klucel (hydroxypropylcellulose) (HPC)", "result": "6 of 6"}]}, {"smiles": "C/C(=N\\NC(=O)c1ccc([N+](=O)[O-])cc1)c1ccccc1", "values": [{"measurement": "survivor count", "setting": "dose: 50.0 mg/kg/injection, schedule: Q01DX001 (ip), vehicle: carboxymethylcellulose (CMC)", "result": "3 of 4"}, {"measurement": "survivor count", "setting": "dose: 400.0 mg/kg/injection, schedule: Q01DX001 (ip), vehicle: carboxymethylcellulose (CMC)", "result": "1 of 4"}]}, {"smiles": "CC(C)=CCCC(C)C/C=N\\N=C(N)N", "note": "(stereo unspecified)", "values": [{"measurement": "survivor count", "setting": "dose: 120.0 mg/kg/injection, schedule: Q01DX Z (ip), vehicle: carboxymethylcellulose (CMC)", "result": "0 of 6"}, {"measurement": "survivor count", "setting": "dose: 240.0 mg/kg/injection, schedule: Q01DX Z (oral), vehicle: carboxymethylcellulose (CMC)", "result": "2 of 6"}, {"measurement": "survivor count", "setting": "dose: 480.0 mg/kg/injection, schedule: Q01DX Z (oral), vehicle: carboxymethylcellulose (CMC)", "result": "0 of 6"}, {"measurement": "survivor count", "setting": "dose: 960.0 mg/kg/injection, schedule: Q01DX Z (oral), vehicle: carboxymethylcellulose (CMC)", "result": "0 of 6"}]}, {"smiles": "CCOP(=O)(SCC)N(CC)CC", "note": "(stereo unspecified)", "values": [{"measurement": "survivor count", "setting": "dose: 75.0 mg/kg/injection, schedule: Q01DX001 (ip), vehicle: saline", "result": "2 of 6"}, {"measurement": "survivor count", "setting": "dose: 150.0 mg/kg/injection, schedule: Q01DX001 (ip), vehicle: saline", "result": "0 of 6"}, {"measurement": "survivor count", "setting": "[7]", "result": "0 of 6"}]}, {"smiles": "O=[N+]([O-])c1cc(Cl)ccc1S(=O)(=O)F", "values": [{"measurement": "survivor count", "setting": "dose: 400.0 mg/kg/injection, schedule: Q04DX003 (ip), vehicle: carboxymethylcellulose (CMC)", "result": "0 of 6"}]}, {"smiles": "CC(C)(C)CC(C)(C)NS(=O)(=O)CCCBr", "values": [{"measurement": "survivor count", "setting": "dose: 100.0 mg/kg/injection, schedule: Q04DX003 (ip), vehicle: saline with Tween-80", "result": "2 of 6 and 6 of 6"}, {"measurement": "survivor count", "setting": "[8]", "result": "0 of 6"}, {"measurement": "survivor count", "setting": "[6]", "result": "0 of 6"}]}, {"smiles": "CN=C(NC)c1ccc(NC(=O)CCc2ccc(C(=O)Nc3ccc(C(=NC)NC)cc3)cc2)cc1", "values": [{"measurement": "T/C", "setting": "dose: 5.25 mg/kg/injection, schedule: Q01DX Z (ip), vehicle: carboxymethylcellulose (CMC)", "result": "135 % of control"}, {"measurement": "T/C", "setting": "dose: 21.0 mg/kg/injection, schedule: Q01DX Z (ip), vehicle: carboxymethylcellulose (CMC)", "result": "144 % of control"}, {"measurement": "survivor count", "setting": "dose: 42.0 mg/kg/injection, schedule: Q01DX Z (ip), vehicle: carboxymethylcellulose (CMC)", "result": "0 of 6"}]}, {"smiles": "O=C(CBr)c1ccc(Br)cc1", "values": [{"measurement": "survivor count", "setting": "dose: 50.0 mg/kg/injection, schedule: Q04DX002 (ip), vehicle: Klucel (hydroxypropylcellulose) (HPC)", "result": "3 of 3"}]}, {"smiles": "COc1ccc(NC(=O)OC/C=C/c2ccccc2)c(OC)c1", "values": [{"measurement": "survivor count", "setting": "dose: 400.0 mg/kg/injection, schedule: Q01DX009 (ip), vehicle: Klucel (hydroxypropylcellulose) (HPC)", "result": "6 of 6"}]}, {"smiles": "CCC(C)NC1=CC(=O)c2ccccc2C1=O", "note": "(stereo unspecified)", "values": [{"measurement": "survivor count", "setting": "dose: 400.0 mg/kg/injection, schedule: Q01DX001 (ip), vehicle: saline with Tween-80", "result": "0 of 6"}]}, {"smiles": "O=NN(CCI)C(=O)NCCI", "values": [{"measurement": "survivor count", "setting": "[7]", "result": "0 of 6"}, {"measurement": "survivor count", "setting": "dose: 400.0 mg/kg/injection, schedule: Q01DX001 (ip), vehicle: saline", "result": "0 of 6"}, {"measurement": "survivor count", "setting": "dose: 500.0 mg/kg/injection, schedule: Q01DX001 (ip), vehicle: saline", "result": "1 of 6"}, {"measurement": "survivor count", "setting": "dose: 600.0 mg/kg/injection, schedule: Q01DX001 (ip), vehicle: saline", "result": "0 of 6"}, {"measurement": "survivor count", "setting": "dose: 800.0 mg/kg/injection, schedule: Q01DX001 (ip), vehicle: saline", "result": "0 of 6"}, {"measurement": "survivor count", "setting": "dose: 1000.0 mg/kg/injection, schedule: Q01DX001 (ip), vehicle: saline", "result": "0 of 6"}]}]}
